42 sequences from paper PMC7819943, “Rice protein-binding microarrays: a tool to detect cis-acting elements near promoter regions in rice” can be followed below.

This is one part of the list.

The assay concerns the target T1, OsSMF1 (Oryza sativa, UniProt Q6ZLB0 1-436).
T1 sequence: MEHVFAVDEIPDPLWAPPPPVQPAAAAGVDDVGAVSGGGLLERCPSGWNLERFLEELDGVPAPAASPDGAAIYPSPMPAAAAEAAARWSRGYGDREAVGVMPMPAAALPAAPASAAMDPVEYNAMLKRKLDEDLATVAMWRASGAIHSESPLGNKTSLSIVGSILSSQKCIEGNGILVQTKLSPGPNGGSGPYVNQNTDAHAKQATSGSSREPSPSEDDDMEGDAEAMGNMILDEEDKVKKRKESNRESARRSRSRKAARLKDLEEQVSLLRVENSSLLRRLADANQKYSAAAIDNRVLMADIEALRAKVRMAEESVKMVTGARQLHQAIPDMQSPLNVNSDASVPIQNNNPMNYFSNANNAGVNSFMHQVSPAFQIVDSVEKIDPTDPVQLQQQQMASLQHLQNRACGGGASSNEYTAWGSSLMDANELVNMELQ
The experiment in a line: protein-binding microarray (RPBM); PBS, 2% BSA, 51.3 ng/ul salmon testes DNA, 50 uM zinc acetate, 200 nM TF, 25 C, 1 h; high values mean tight binding. As to conditions: protein: recombinant; tags: N-terminal polyhistidine and DsRed monomer fusion (pET32a); chain copies: 2; label: CyDye5-dUTP incorporated in the synthesized complementary strand; 3' TTTTT single-stranded linker to array surface; dsDNA, one strand shown. The method in brief:
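Binding signal is reported as fluorescence intensity per feature (arbitrary units) from an Axon 4000B scanner. Incubation used 200 nM of each Ni–NTA-purified, N-terminally polyhistidine- and DsRed-fused transcription factor from E. coli BL21-CodonPlus on a double-stranded custom Agilent array for 1 h at 25 °C, with 50 µM zinc acetate in the buffer, followed by washing.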
With “AGTCCCCGCGGCCCACCTAACGTCCCACGCGGCCTCGGTGCGGAGTCACCTAGTGCAG”, the binding signal is 3390 fluorescence intensity (a.u.).

For the sequence “ACTACACCGTCGCAGCGCACCCACGTGACACGCAGCCACACGGAGTCACCTAGTGCAG”, the binding signal was 4730 fluorescence intensity (a.u.).

Regarding “TCACGCCTCTCTCTCTCTCTGCTCCCAAATCTGCGTGGGACGGAGTCACCTAGTGCAG”, the binding signal is 3250 fluorescence intensity (a.u.).

As to “TTAATTACAAATTGATTTGATCACGTAGATAATTACATCACGGAGTCACCTAGTGCAG”, the binding signal is 37500 fluorescence intensity (a.u.).

As to “GTAGGGGTCTCGAGGTGTTCAAGTGTGGATTACTCCATAGCGGAGTCACCTAGTGCAG”, the binding signal was 24900 fluorescence intensity (a.u.).

Take “TCGGTAGAGAGGTGAGGTTGTGTGATTGCACATATATTTTCGGAGTCACCTAGTGCAG”: the binding signal was 3630 fluorescence intensity (a.u.).

Turning to “ACAAATAAAATGCAACTAAATACAAGAATGTTTATATGAACGGAGTCACCTAGTGCAG”, the binding signal was 17600 fluorescence intensity (a.u.).

Turning to “TTCTCCTTAGCGACGACGAGGCGGCGGGCGGCCACTCTCCCGGAGTCACCTAGTGCAG”, the binding signal was 3190 fluorescence intensity (a.u.).

Regarding “AATCGAATTCAATCATGAAGAACGAGATAGCAACATTTAGCGGAGTCACCTAGTGCAG”, the binding signal was 16400 fluorescence intensity (a.u.).

In the case of “GAGCCCCGCACGGCTCGCCCACCGCCGGCGACGTCAGCCGCGGAGTCACCTAGTGCAG”, the binding signal was 5310 fluorescence intensity (a.u.).

Regarding “ATTAGATAGTACTAATACCTGATTAGACGCCGTCCCATTGCGGAGTCACCTAGTGCAG”, the binding signal was 3640 fluorescence intensity (a.u.).

Turning to “GTTACGACAAGTGCCACAAACCAGCAGAAGCAAAGGTAGACGGAGTCACCTAGTGCAG”, the binding signal is 47900 fluorescence intensity (a.u.).

With “GGCATGACAGCGATCGGTGACGCCTTCTTCTCCATGGCCACGGAGTCACCTAGTGCAG”, the binding signal is 5730 fluorescence intensity (a.u.).

Consider “AAGAAAAGCCTGCGGACCCTAATTCTTTTAATAGTTTGGGCGGAGTCACCTAGTGCAG”, for which the binding signal was 26400 fluorescence intensity (a.u.).

For “GCCGCTGCGCTGGCCACCCCAGGCTCCACTCCGACGAGATCGGAGTCACCTAGTGCAG”, the binding signal is 3300 fluorescence intensity (a.u.).

On to “AATCCGGCCTGCCACCGTTTCGTGTACTGCGTAACCGTGCCGGAGTCACCTAGTGCAG”, for which the binding signal is 5040 fluorescence intensity (a.u.).

For the sequence “AGTACAAATATCTGGGACCTTAGAGCATCCCATGAGCTCACGGAGTCACCTAGTGCAG”, the binding signal was 3640 fluorescence intensity (a.u.).

For the sequence “GTCCTTCCCGGCGAGGATGGGGAGGGTGGCCATGTCCCCGCGGAGTCACCTAGTGCAG”, the binding signal is 3590 fluorescence intensity (a.u.).

For “GTGATGTGCTCGCGTTGCGCACAGCTGCAGTCTAGCGTGGCGGAGTCACCTAGTGCAG”, the binding signal is 3430 fluorescence intensity (a.u.).

“GCGCCACGTAGACGCCACGTCAGCCAAAACCGCCCTCCATCGGAGTCACCTAGTGCAG”: the binding signal is 52000 fluorescence intensity (a.u.).

Regarding “TCCTCCTCCTCCTTAAACCCGTCACCATCGGTGGCCGTCCCGGAGTCACCTAGTGCAG”, the binding signal is 3180 fluorescence intensity (a.u.).

Take “GCTGATGGTTTGTGTCGGGAGGGGAGGATTGAGGATGCTTCGGAGTCACCTAGTGCAG”: the binding signal was 3840 fluorescence intensity (a.u.).

Take “GATAAATGACGACGCTAAATGTGTAGTTTTGTGATAAACGCGGAGTCACCTAGTGCAG”: the binding signal is 3680 fluorescence intensity (a.u.).

As for “TACTTATGTAAAAGGATTGATTTAAGAGAATGGTCCAAACCGGAGTCACCTAGTGCAG”, the binding signal is 44100 fluorescence intensity (a.u.).

On to “GCTTTGCTTCACTTACACTTACACCTCACCGTGCTCCCTCCGGAGTCACCTAGTGCAG”, for which the binding signal is 5310 fluorescence intensity (a.u.).

Take “GTGCGGTGCACTTGACACACTGCAGGATCATGCCCTCTTTCGGAGTCACCTAGTGCAG”: the binding signal was 4220 fluorescence intensity (a.u.).

For “ACGCCAGCCATGTGTGTGTCTTGTCCGCGTACGTGCGCGCCGGAGTCACCTAGTGCAG”, the binding signal was 3460 fluorescence intensity (a.u.).

As for “ATATCCGTGAGTGGGCTACAGAAAGCCCACTCACGCATATCGGAGTCACCTAGTGCAG”, the binding signal was 3150 fluorescence intensity (a.u.).

With “CCACTAGCCCAGCCCATGCCACCGCTACGTTACCTTCTCCCGGAGTCACCTAGTGCAG”, the binding signal is 3300 fluorescence intensity (a.u.).

As to “GGCACCGCCGTCTCGCCGTCTCTATGTACAAGTCTCTATGCGGAGTCACCTAGTGCAG”, the binding signal is 3210 fluorescence intensity (a.u.).

For the sequence “GCCTCGTTTCCATCTCCGCCGCGCTCGCCGCGTTCACACTCGGAGTCACCTAGTGCAG”, the binding signal was 3390 fluorescence intensity (a.u.).

“GGTCTGGCGATGGAGCCTCCCGCCGGAGACGCCGCGCCGTCGGAGTCACCTAGTGCAG”: the binding signal was 3540 fluorescence intensity (a.u.).

As for “CCCAGACCCCACGTGTCCCCACTTCCCTGCGCCCTCCATGCGGAGTCACCTAGTGCAG”, the binding signal was 8590 fluorescence intensity (a.u.).

In the case of “AGTGCCCAGCGGTGCCCGTGGACTGGACCTGACGGTGACGCGGAGTCACCTAGTGCAG”, the binding signal is 4230 fluorescence intensity (a.u.).

Consider “CCCCGACACCGCCGTCTATGGCAACCGGGACTTGGACGACCGGAGTCACCTAGTGCAG”, for which the binding signal is 19000 fluorescence intensity (a.u.).

In the case of “GGGCCTACGTAACGCTCGCTTCTTTGCCTCCTCGTTCCCTCGGAGTCACCTAGTGCAG”, the binding signal was 3210 fluorescence intensity (a.u.).

Consider “TCCCCACCCATTGACGGCTGCCGTAGAGGTTTGGGTTGAGCGGAGTCACCTAGTGCAG”, for which the binding signal is 37700 fluorescence intensity (a.u.).

Regarding “AGAATCCAAGAAGCGTTCAGTGGTGGGAGCCGGCAGCTGTCGGAGTCACCTAGTGCAG”, the binding signal was 3880 fluorescence intensity (a.u.).

For “ACCTCGGTGTGAGGAGGAGCTGCCGGTGGGTGTGGCGTGACGGAGTCACCTAGTGCAG”, the binding signal was 3270 fluorescence intensity (a.u.).

Turning to “TGGTTCGTTTCTTCAGAAATCAACCTTTTAACCAGTGGCGCGGAGTCACCTAGTGCAG”, the binding signal was 6480 fluorescence intensity (a.u.).

“CTTAGGCCAGCTGTATGCCGTGCGTGTATATAAGCACAGGCGGAGTCACCTAGTGCAG”: the binding signal was 4220 fluorescence intensity (a.u.).

As to “CACAATCTTGCGATCCAGCTCATGTGGCGGACGGAATGAGCGGAGTCACCTAGTGCAG”, the binding signal was 3470 fluorescence intensity (a.u.).
